Measurements taken from PubChem BioAssay AID1458 (National Center for Advancing Translational Sciences (NCATS), 2008).
About 5,900 (2.8%) of roughly 210,000 compounds were called active. Roughly 5% stayed inconclusive and do not appear here. Calls follow the shape of the dose curve; as a rule, active = well fitted activation curve with a large enough effect; inconclusive = small, poorly fitted or top-dose-only effect; inactive = no such curve, though single readings can be large or run the other way. Only a part is listed here, and it is no random draw. Where no call is shown, the source filed none.

Test: qHTS Assay for Enhancers of SMN2 Splice Variant Expression; also: nearly all actives have a fitted effect of over 55% in size; as to activity change, positive = activation: % of control where 0% means no effect
Conditions: HEK293 SMN2-luciferase splicing reporter, luminescence, 30-36 h; activity change, positive = activation: at 46.1 µM (top of the series) unless noted
Procedure, shortened: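 HEK293 cells carry an SMN2 minigene-luciferase reporter in which exon 7 inclusion puts luciferase in frame. Cells were seeded at 2000 cells/well, attached for 10-12 hours, then exposed to compounds for 30-36 hours at 37C before ONE-Glo luminescence.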
Potency is read from the fitted curve at half-maximal effect.

Row | SMILES | activity change, positive = activation | Potency
1 | CCCC(=O)Nc1nc2ccc(S(N)(=O)=O)cc2s1 | 30.9% | 
2 | O=C(CCSc1nc(-c2ccco2)cc(C(F)(F)F)n1)N1CCN(c2ccccn2)CC1 | 22.2% | 
3 | Cc1occc1-c1nnc(SCC(N)=O)n1Cc1ccccc1 | 0.815% | 
4 | Nc1nnc(SCC(=O)c2cccc([N+](=O)[O-])c2)s1 | inactive: -57.5% | 
5 | C=CCOC(=O)C1=C(C)Nc2nnnn2C1c1cc(OC)ccc1OC (stereo unspecified) | 55% | 
6 | Clc1cccc(/C=N/Nc2nc(Cl)nc3ccccc23)c1 |  | active: 22.4 µM
7 | Cc1ccc(NC(=O)c2oc3ccccc3c2NC(=O)c2cc3ccccc3o2)cc1 | 40.3% | 
8 | CCC(C)C(=O)N1CCCC(c2nc(-c3cccs3)no2)C1 (stereo unspecified) | 48.1% | 
9 | O=S(=O)(Cc1cc(-c2ccc(Cl)cc2)no1)c1ccccc1 |  | active: 12.6 µM
10 | O=C1C(Cl)=C(N2CCN(Cc3ccccc3)CC2)C(=O)N1c1ccccc1 | 34.8% | 
11 | O=c1[nH]c(N/N=C/c2ccccc2)nc2ccccc12 |  | active: 14.1 µM
12 | N#Cc1c(NC(=O)c2ccccc2)sc2c1CCCCC2 |  | active: 0.631 µM
13 | CO/N=C(\C(=O)N[C@@H]1C(=O)N2C(C(=O)O)=C(COC(C)=O)CS[C@H]12)c1csc(N)n1 (stereo in doubt) | -11.5% | 
14 | CCNC(=S)N(CCc1c(C)[nH]c2ccc(C)cc12)Cc1cccs1 | inactive: -109% | 
15 | Oc1c(Cl)cc(Cl)cc1C=Nc1ccc2c(c1)OCCO2 | 26.8% | 
16 | O=C(Nc1cnc2ccccc2c1)c1ccco1 |  | active: 14.1 µM
17 | CC(=O)Nc1ccc(NC(=O)C(C)OC(=O)C2(c3ccc(F)cc3)CCCC2)cc1 (stereo unspecified) | inactive: -72.7% | 
18 | O=C(c1ccco1)N1CCN(c2nc(-c3ccc(F)cc3)cs2)CC1 | -35% | 
19 | Cc1ccc(NC(=O)/C(=C/c2ccncc2)NC(=O)c2ccccc2)cc1 | 49.2% | 
20 | CCN(C(=O)c1cc2c(s1)-c1ccccc1OC2)c1cc(Cl)ccc1OC | inactive: -58.6% | 
21 | S=c1[nH]cnc2sc(-c3ccccc3)cc12 | 33.3% | 
22 | C=CCOc1ccc2nc(NC(=O)OC)[nH]c2c1 |  | active: 11.2 µM
23 | CN(C)/C=C1\Oc2ccc3ccccc3c2C1=O |  | active: 17.8 µM

An excerpt from above in order of length of the SMILES, largest number first.
Row | SMILES | activity change, positive = activation | Potency
7 | Cc1ccc(NC(=O)c2oc3ccccc3c2NC(=O)c2cc3ccccc3o2)cc1 | 40.3% | 
12 | N#Cc1c(NC(=O)c2ccccc2)sc2c1CCCCC2 |  | active: 0.631 µM
22 | C=CCOc1ccc2nc(NC(=O)OC)[nH]c2c1 |  | active: 11.2 µM

The list goes on:

Row | SMILES | activity change, positive = activation | Potency
24 | Cc1cccc(NC(=O)/C=C/c2ccc3c(c2)OCO3)n1 |  | active: 2.24 µM
25 | Cc1[nH]c2c(Cl)cccc2c(=O)c1CN1CCCC1 | 36.4% | 
26 | CN1c2ccccc2C(C)(C)C12CC(c1ccc(Cl)c(S(=O)(=O)N3CCCC3)c1)=NO2 (stereo unspecified) | 106% | 
27 | CC(=O)c1ccc(N2CCCC2)c(F)c1 | 30.8% | 
28 | Cn1cc(-c2nnc(-c3ccccc3)o2)c2ccccc21 |  | active: 2.51 µM
29 | O=C(NCCc1nc2ccccc2[nH]1)c1ccc(F)cc1 | 37.1% | 
30 | Cc1cc(Cl)ccc1OCc1nc(-c2ccncc2)no1 |  | active: 12.6 µM
31 | Clc1ccc(-c2cn3nc4c(nc3n2)CCCC4)cc1 |  | active: 1.78 µM
32 | CNc1ccccc(-c2ccc3cc4c(cc3n2)OCO4)c1=O | 173% | 
33 | O=C(c1cc2ccccc2oc1=O)N1CCN(c2ccccn2)CC1 | 57.9% | 
34 | CCOC(=O)c1ccc(NC(=O)CC2C(=O)N(c3ccc(F)cc3)C(=O)N2Cc2ccc3c(c2)OCO3)cc1 (stereo unspecified) | inactive: -50.7% | 
35 | COc1ccc(OC)c(S(=O)(=O)Nc2ccc(F)cc2)c1 | 41.4% | 
36 | CCCCOC(=O)NC1(C)CCS(=O)(=O)C1 (stereo unspecified) | 20.6% | 
37 | CN(c1ccc(OCc2nnc(-c3ccccc3)o2)cc1)S(=O)(=O)c1ccccc1 | -42.4% | 
38 | Fc1ccccc1NC(=S)Nc1ccc(CN2CCOCC2)cc1 | -16.6% | 
39 | C/C(N)=C(/C#N)C(=O)CSc1nc2ccccc2c(=O)n1-c1ccccc1C | inactive: -56.7% | 
40 | O=C(Nc1ccc(NC(=O)c2cccs2)cc1Cl)c1ccco1 | 76.4% | 
41 | CCOC(=O)c1ccc(-n2[nH]c(-c3ccccc3)cc2=O)cc1 | inactive: -72.8% | 
42 | Cc1nc(-n2[nH]c3c(c2=O)CCCC3)[nH]c(=O)c1Cc1ccccc1 | -78.7% | 
43 | COc1ccc(-n2c(O)c(C=Nc3ccccc3)c3ccccc3c2=O)cc1 | inactive: -2.75% | 
44 | Cc1cccc(NS(=O)(=O)c2ccc(C3CCCCC3)cc2)c1 | inactive: -38.4% | 
45 | CCOCCOCCC(C(=O)O)P(=O)(c1ccccc1)c1ccccc1 (stereo unspecified) | 15.9% | 
46 | C/C(=N\OC(=O)c1cccc(Cl)c1)c1sc(C)nc1C | -53.4% | 

Row | SMILES | activity change, positive = activation | Potency
47 | Cc1ccc(/C=N/NC(=O)CSc2nnc(-c3ccc(Cl)cc3)n2-c2ccccc2)o1 | -26.7% | 
48 | Cc1scc(C(=O)N2CCN(S(C)(=O)=O)CC2)c1-c1ccccc1 | 47% | 
49 | O=C1c2cccc(OCC(=O)N3CCCc4ccccc43)c2CCN1Cc1ccccc1 | -84% | 
50 | CN1CCN(C(=O)c2cnn3c(C(F)(F)F)cc(-c4ccc5c(c4)OCO5)nc23)CC1 | 33.5% | 
51 | O=C(O)c1cccc(-n2nnnc2SCc2ccccn2)c1 | 38.7% | 
52 | O=C(C1CC(c2ccc(F)cc2)=NO1)N1CCCCC1 (stereo unspecified) |  | active: 28.2 µM
53 | CCn1c(SCC(=O)N/N=C/C=C/c2ccco2)nnc1-c1ccccc1 | inactive: -40.9% | 
54 | c1ccc(COc2ccc(OCCn3cncn3)cc2)cc1 |  | active: 11.2 µM
55 | COc1ccc2nc(NC(=O)CSc3nc(C)cc(=O)[nH]3)sc2c1 | 35.2% | 
56 | CC(C)OC(=O)NCCOC(=O)Nc1cccc(Cl)c1 | inactive: -33.7% | 
57 | C=CCN1C(=O)/C(=C/c2ccsc2)SC1=S | inactive: -66.6% | 
58 | CCCCN(C)C(=O)C1CCN(CCCc2ccccc2)CC1 | 31.7% | 
59 | Cc1csc(NC(=O)c2ccc(OCC3CCCO3)cc2)n1 (stereo unspecified) |  | active: 1.41 µM
60 | Cc1cc(C)cc(NC(=S)NCCN(C2CCCCC2)C2CCCC2)c1 | inactive: -37.4% | 
61 | CCn1c(SCC(=O)Nc2nonc2C)nnc1-c1ccco1 | 35.7% | 
62 | CC(C)C(=O)N1CCN(c2ccc(NC(=O)c3ccc4c(c3)OCCO4)cc2Cl)CC1 | inactive: -40.9% | 
63 | CCC(C)(C)NC(=O)C(c1cccn1C)N(Cc1ccc(C)cc1)C(=O)Cn1nnc2ccccc21 (stereo unspecified) |  | active: 15.8 µM
64 | CCn1c2ccccc2c2cc(CN3CCN(Cc4cc(OC)ccc4O)CC3)ccc21 | -44.7% | 
65 | COc1ccc(-n2ncc3c(SCC(=O)N4CCN(c5ccccc5OC)CC4)ncnc32)cc1 | inactive: -45.2% | 
66 | COc1ccc(CCNC(=O)COc2ccc(S(=O)(=O)NC(C)C)cc2)cc1OC | -30.3% | 
67 | COC(=O)c1c(F)c(F)c(N2CCOCC2)c(F)c1F | 75.8% | 
68 | Cc1sc2nc3n(c(=O)c2c1C)CCCS3 | 73.7% | 
69 | CC(C)(C)NCCCCOc1ccccc1F | 45.5% | 

In another format: entries from further up

| Row | SMILES | activity change, positive = activation | Potency |
| --- | --- | --- | --- |
| 14 | CCNC(=S)N(CCc1c(C)[nH]c2ccc(C)cc12)Cc1cccs1 | inactive: -109% |  |
| 23 | CN(C)/C=C1\Oc2ccc3ccccc3c2C1=O |  | active: 17.8 µM |
| 51 | O=C(O)c1cccc(-n2nnnc2SCc2ccccn2)c1 | 38.7% |  |

(next part)

Row | SMILES | activity change, positive = activation | Potency
70 | Cc1cc(N/N=C/c2ccccc2Cl)nc(NCc2ccccc2)n1 | inactive: -31% | 
71 | Cc1cc(NC(=O)c2ccc(Cl)cc2)c(C)cc1O | 33% | 
72 | CCOC(=O)C1=C(CN2CCN(c3cc(C)ccc3C)CC2)NC(=O)NC1c1ccc(Cl)cc1 (stereo unspecified) | inactive: -49.6% | 
73 | Cn1ncc2nc[nH]c(=O)c21 | 37.9% | 
74 | Cc1cc(SC(C)C(=O)Nc2ncc(Cl)cc2Cl)nc2ccccc12 (stereo unspecified) |  | active: 3.55 µM
75 | Cc1ccc(C(=O)Nc2onc3c2CCCC3)cc1 |  | active: 2.51 µM
76 | O=C(c1cc(-c2ccc(Cl)c(Cl)c2)on1)N1CCCCC1 |  | active: 22.4 µM
77 | Cc1noc(NS(=O)(=O)c2ccc(N/C=C/C(=O)c3ccc(F)cc3)cc2)c1C | inactive: -27% | 
78 | CCOC(=O)CSc1nnc(-c2ccc(S(=O)(=O)N3CCOCC3)cc2)n1-c1ccccc1 | 31.6% | 
79 | Cc1cc(Oc2ccc(=O)n(C)n2)nc(Oc2ccc(=O)n(C)n2)n1 | 43.5% | 
80 | Cc1ccc(CNc2ccc3c(c2)ncn3C)cc1 |  | active: 17.8 µM
81 | CCOc1ccc(NS(=O)(=O)c2cc(OCC(N)=O)c(C)cc2Cl)cc1 | -50.2% | 
82 | Cc1ccccc1C1CC(c2ccccc2OC(F)F)Nc2ncnn21 (stereo unspecified) | 36.5% | 
83 | CNS(=O)(=O)c1ccccc1C(=N)c1ccccc1 | 23% [at 9.22 µM] | 
84 | C=CCOc1ccc2c(c1)C(=NO)c1cc(OCC=C)ccc1-2 | inactive: -34% | 
85 | NC(=O)Nc1ccccc1C(=O)NCCc1ccccc1 | 33.9% | 
86 | COc1cccc(CNC(=O)CCC2CCCN(Cc3cc4ccccc4o3)C2)c1 (stereo unspecified) | inactive: -39.4% | 
87 | Cn1nnnc1SCC(=O)Nc1nc2c(s1)CCCC2 | 146% | 
88 | COC(=O)N1C(C)=Cc2ccccc2C1CC(C)=O (stereo unspecified) |  | inactive
89 | C=CCNC(=S)N/N=C/c1ccc(N(CC)Cc2ccccc2)cc1 | -32.3% | 
90 | O=C(O)C1CCCCC1C(=O)Nc1ccc2c(c1)CCC2 (stereo unspecified) | 23% | 
91 | CCc1ccc(NC2Nc3cc(C)nn3S2)cc1 (stereo unspecified) |  | active: 11.2 µM
92 | COCCCNC(=O)Cn1nnc(-c2ccc(NC(=O)c3ccc(F)cc3)cc2)n1 | 38.4% | 

Row | SMILES | activity change, positive = activation | Potency
93 | COc1ccccc1/C=C/C(=O)NCCC1=CCCCC1 |  | active: 11.2 µM
94 | Cc1ccc(NC(=O)c2ccc3c(c2)OCCO3)cc1S(=O)(=O)Nc1cccc(Cl)c1 | -98.9% | 
95 | O=C(CCCOc1ccccc1)Nc1nc2ccccc2[nH]1 | 125% | 
96 | Cc1ccc(NC(=O)c2ccco2)c([N+](=O)[O-])c1 |  | active: 22.4 µM
97 | CCc1nnc(NC(=O)c2c(O)c3c([nH]c2=O)CCCC3)s1 |  | active: 14.1 µM
98 | CCN1CCN(Cc2coc3ccc(C)cc3c2=O)CC1 | 32.1% | 
99 | Cc1ccc(CC23CN4CCN(CC(C4)C2O)C3)c(C)c1 (stereo unspecified) | 45% | 
100 | CCCCOC(=O)Nc1ccc(N2CCOCC2)cc1 |  | active: 11.2 µM
101 | CCOC(=O)CSc1nc2cc(OCC)ccc2cc1C#N |  | active: 22.4 µM
102 | CCOc1nc(-c2ccc(C)cc2)ccc1-c1noc(-c2cccnc2)n1 | 38% | 
103 | Cc1ccc(NC(=O)NC(=O)N(C2CCCCC2)S(=O)(=O)c2ccccc2)cc1 |  | active: 7.94 µM
104 | CC(C)CNC(=S)NC(=O)c1ccc(Cl)cc1 | 173% | 
105 | COc1ccc(C(=O)N=c2sc3ccccc3n2C)cc1 |  | active: 2.51 µM
106 | CCCCCCn1ccc(=N)cc1 | inactive: -64.8% | 
107 | O=c1[nH]c(SCc2cccc(Cl)c2)nc2[nH]ncc12 | 45.6% | 
108 | O=C(CN1CCN(CC(=O)c2ccc(F)cc2)CC1)Nc1ccccc1Cl | 17.8% | 
109 | COc1ccc(C(=O)Cn2c(C(=O)/C=C/c3ccccc3)nc3ccccc32)cc1 | -50.4% | 
110 | CC(=O)c1cccc(NC(=O)C=C(C)C)c1 | 18.8% | 
111 | CN(C)S(=O)(=O)c1ccc(Cl)c(NC(=O)CN2CCC(Cc3ccccc3)CC2)c1 | inactive: -39.5% | 
